In the supplement of paper PMC7889204:
The other results are listed elsewhere or left out. Most values come without repeats; read them as rough.

What follows are compounds tested on C6 (assay: cell mass (Coomassie absorbance) after combination of library compound with HMBA, relative to vehicle control (fraction); higher = more remaining cells (less growth inhibition)).
In the case of `Cc1cc(Nc2cc(N3CCN(C)CC3)nc(/C=C/c3ccccc3)n2)n[nH]1` + CC(=O)NCCCCCCNC(C)=O [hexamethylene bisacetamide], the cell mass was 0.379. In the case of `O=C(Cc1ccc(-c2ccc(OCCN3CCOCC3)cc2)cn1)NCc1ccccc1` + CC(=O)NCCCCCCNC(C)=O [hexamethylene bisacetamide], the cell mass was 0.484. For `Cc1ccc(NC(=O)c2ccc(CN3CCN(C)CC3)cc2)cc1Nc1nccc(-c2cccnc2)n1` [Imatinib(STI571)] + CC(=O)NCCCCCCNC(C)=O [hexamethylene bisacetamide], the cell mass was 0.656. With `CC(C)C[C@H](NC(=O)CNC(=O)c1cc(Cl)ccc1Cl)B(O)O` + CC(=O)NCCCCCCNC(C)=O [hexamethylene bisacetamide] the cell mass was 0.264. In the case of `Cc1cc(Nc2cc(CN3CCOCC3)c3nc(C)c(Cc4ccc(Cl)cc4F)n3n2)n[nH]1` + CC(=O)NCCCCCCNC(C)=O [hexamethylene bisacetamide], the cell mass was 0.467. Work on `O=C(Nc1ccc(OC(F)(F)F)cc1)c1sccc1NCc1ccnc2ccccc12` + CC(=O)NCCCCCCNC(C)=O [hexamethylene bisacetamide] yielded a cell mass of 0.349. In the case of `N#Cc1ccc(C(c2ccc(C#N)cc2)n2cncn2)cc1` [Letrozole] + CC(=O)NCCCCCCNC(C)=O [hexamethylene bisacetamide], the cell mass was 0.455. Work on `COc1ccc(S(=O)(=O)Nc2cccnc2Nc2ccc(O)cc2)cc1` + CC(=O)NCCCCCCNC(C)=O [hexamethylene bisacetamide] yielded a cell mass of 0.474. With `Cc1cnc(NC(=O)Nc2cc(Br)c(C)cc2OC[C@@H]2CNCCO2)cn1` + CC(=O)NCCCCCCNC(C)=O [hexamethylene bisacetamide] the cell mass was 0.453. For `CC[C@H](CO)Nc1nc(NCc2ccccc2)c2cnn(C(C)C)c2n1` [Roscovitine(CYC202)] + CC(=O)NCCCCCCNC(C)=O [hexamethylene bisacetamide], the cell mass was 0.541.
